{"source": "PubChem BioAssay AID492980", "about": "(National Center for Advancing Translational Sciences (NCATS), 2010)", "note": "Screen size: about 1,400 compounds; fewer than 10 were called active. Inconclusive means that the source gave no clear call. Such entries were picked first, then a sample of the others. The call rests on the fitted dose curve. Where the call is inconclusive, the potency comes from a doubtful curve fit.", "data": [{"assay": "Assay for Inhibitors of Influenza NS1 Protein Function: Hit Validation; on activity change, negative = inhibition: 0% is about no effect", "conditions": "influenza NS1 function cell assay, 15-point titration; activity change, negative = inhibition: at 32.9 µM (top of the series)", "method_in_brief": "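Growth-recovery read-out (OD600) in budding yeast whose NS1 expression (galactose-induced, uracil drop-out medium, pH 6.0) slows growth; retests compounds active in the primary screen. Isogenic non-NS1 yeast defines full recovery.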", "values": [{"compound": "Cc1cc(OCC(=O)N[C@@H](CSCc2ccccc2)C(=O)O)c2c(C)c(C)c(=O)oc2c1", "Potency": "inconclusive: 22.3 µM [signal activator, partial curve, poor fit]"}, {"compound": "COC(=O)c1ccc(Sc2ccccc2NS(=O)(=O)c2ccc(C)cc2)nc1", "Potency": "inconclusive: 22.3 µM [signal inhibitor, single point]"}, {"compound": "CC(C)[C@@]1(NC(=O)[C@@H]2C[C@@H]3c4cccc5[nH]cc(c45)C[C@H]3N(C)C2)O[C@@]2(O)C3CCCN3C(=O)[C@H](Cc3ccccc3)N2C1=O", "note": "(stereo partly specified)", "Potency": "inconclusive: 5 µM [signal inhibitor, full curve]"}, {"compound": "Cc1cc2cc(NC(=O)c3ccco3)ccc2[nH]1", "Potency": "inconclusive: 19.9 µM [signal inhibitor, partial curve, poor fit]"}, {"compound": "FC(F)Oc1ccc(/C=N/c2c(-c3ccc(OC(F)F)cc3)nc3n2CCS3)cc1", "Potency": "inactive"}, {"compound": "Cc1ccc(S(=O)(=O)Nc2ccccc2-c2ccccc2NS(=O)(=O)c2ccc(C)cc2)cc1", "Potency": "inactive"}, {"compound": "CCCc1ccc2oc(C(=O)N(Cc3nccn3C)C(C)C)c(C)c2c1", "Potency": "inconclusive: 14.1 µM [signal inhibitor, partial curve]"}, {"compound": "O=C1N=C(N2CCc3ccccc3C2)S/C1=C\\c1cccc(O)c1", "Potency": "inconclusive: 19.9 µM [signal inhibitor, partial curve, poor fit]"}, {"compound": "COc1ccccc1C/C(N)=N/OC(=O)COc1ccc(C)cc1", "Potency": "inconclusive: 15.8 µM [signal inhibitor, partial curve, poor fit]"}, {"compound": "COc1ccc(-c2csc(NC(=O)c3ccc(S(=O)(=O)N4CCc5ccccc5C4)cc3)n2)c(OC)c1", "Potency": "inactive"}, {"compound": "CCC(C)NC(=O)c1c(N)n(/N=C/c2ccccn2)c2nc3ccccc3nc12", "note": "(stereo unspecified)", "Potency": "inconclusive: 8.89 µM [signal activator, partial curve, poor fit]"}, {"compound": "CCc1[nH]c(=S)c(C#N)c(-c2ccccc2)c1C(=O)OC", "Potency": "inactive"}, {"compound": "CCC1CCCCN1CCCNC(=O)CN1C(=O)CSc2ccc(S(=O)(=O)N3CCC(C)CC3)cc21", "note": "(stereo unspecified)", "Potency": "inactive"}, {"compound": "COc1ccc(C(=O)N/C(=C/c2cccc3ccccc23)C(=O)NCCc2c[nH]c3ccccc23)cc1OC", "activity change, negative = inhibition": "inconclusive: 43.1% [signal activator]"}, {"compound": "Cc1ccc(NC(=O)C(Nc2cccc(C)c2)c2ccccc2)cc1", "note": "(stereo unspecified)", "Potency": "inconclusive: 8.89 µM [signal inhibitor, partial curve]"}, {"compound": "Cc1nc(-c2ccc(Cl)cc2)sc1C(=O)NN", "Potency": "inconclusive: 11.2 µM [signal inhibitor, partial curve]"}]}]}
